# According to PMC8534522:
# Chains of the proteins cited; added tags and fusions are not shown.
# UniProt O75475: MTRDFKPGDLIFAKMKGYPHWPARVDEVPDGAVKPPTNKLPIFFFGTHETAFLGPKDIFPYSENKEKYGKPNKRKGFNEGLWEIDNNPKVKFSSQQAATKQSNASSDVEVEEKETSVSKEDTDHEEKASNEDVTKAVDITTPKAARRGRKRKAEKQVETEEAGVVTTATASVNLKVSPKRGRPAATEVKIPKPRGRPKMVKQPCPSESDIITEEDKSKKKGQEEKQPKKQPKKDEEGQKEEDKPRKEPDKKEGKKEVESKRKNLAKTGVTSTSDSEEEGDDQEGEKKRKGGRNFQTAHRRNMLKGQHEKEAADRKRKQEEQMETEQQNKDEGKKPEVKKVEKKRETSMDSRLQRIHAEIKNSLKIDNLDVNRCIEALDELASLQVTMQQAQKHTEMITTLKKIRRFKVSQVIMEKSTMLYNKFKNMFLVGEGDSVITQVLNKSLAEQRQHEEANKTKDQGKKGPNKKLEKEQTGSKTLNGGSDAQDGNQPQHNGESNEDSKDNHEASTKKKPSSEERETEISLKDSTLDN
# These are yes or no findings as the source states them, for the method shown. In cells and extracts the contact can be indirect. Some entries that bind do so weakly or less than the wild type.
# B1: JPO2 (protein, UniProt Q96GN5 1-454)
# chain: MELATRYQIPKEVADIFNAPSDDEEFVGFRDDVPMETLSSEESCDSFDSLESGKQQDVRFHSKYFTEELRRIFIEDTDSETEDFAGFTQSDLNGKTNPEVMVVESDLSDDGKASLVSEEEEDEEEDKATPRRSRSRRSSIGLRVAFQFPTKKLANKPDKNSSSEQLFSSARLQNEKKTILERKKDCRQVIQREDSTSESEDDSRDESQESSDALLKRTMNIKENKAMLAQLLAELNSMPDFFPVRTPTSASRKKTVRRAFSEGQITRRMNPTRSARPPEKFALENFTVSAAKFAEEFYSFRRRKTIGGKCREYRRRHRISSFRPVEDITEEDLENVAITVRDKIYDKVLGNTCHQCRQKTIDTKTVCRNQGCCGVRGQFCGPCLRNRYGEDVRSALLDPDWVCPPCRGICNCSYCRKRDGRCATGILIHLAKFYGYDNVKEYLESLQKELVEDN
# B2: menin (protein, UniProt O00255 1-610)
# chain: MGLKAAQKTLFPLRSIDDVVRLFAAELGREEPDLVLLSLVLGFVEHFLAVNRVIPTNVPELTFQPSPAPDPPGGLTYFPVADLSIIAALYARFTAQIRGAVDLSLYPREGGVSSRELVKKVSDVIWNSLSRSYFKDRAHIQSLFSFITGTKLDSSGVAFAVVGACQALGLRDVHLALSEDHAWVVFGPNGEQTAEVTWHGKGNEDRRGQTVNAGVAERSWLYLKGSYMRCDRKMEVAFMVCAINPSIDLHTDSLELLQLQQKLLWLLYDLGHLERYPMALGNLADLEELEPTPGRPDPLTLYHKGIASAKTYYRDEHIYPYMYLAGYHCRNRNVREALQAWADTATVIQDYNYCREDEEIYKEFFEVANDVIPNLLKEAASLLEAGEERPGEQSQGTQSQGSALQDPECFAHLLRFYDGICKWEEGSPTPVLHVGWATFLVQSLGRFEGQVRQKVRIVSREAEAAEAEEPWGEEAREGRRRGPRRESKPEEPPPPKKPALDKGLGTGQGAVSGPPRKPPGTVAGTARGPEGGSTAQVPAPTASPPPEGPVLTFQSEKMKGMKELLVATKINSSAIKLQLTAQSQVQMKKQKVSTPSDYTLSFLKRQRKGL
# B3: PogZ (protein, UniProt Q7Z3K3 1-1410)
# chain: MADTDLFMECEEEELEPWQKISDVIEDSVVEDYNSVDKTTTVSVSQQPVSAPVPIAAHASVAGHLSTSTTVSSSGAQNSDSTKKTLVTLIANNNAGNPLVQQGGQPLILTQNPAPGLGTMVTQPVLRPVQVMQNANHVTSSPVASQPIFITTQGFPVRNVRPVQNAMNQVGIVLNVQQGQTVRPITLVPAPGTQFVKPTVGVPQVFSQMTPVRPGSTMPVRPTTNTFTTVIPATLTIRSTVPQSQSQQTKSTPSTSTTPTATQPTSLGQLAVQSPGQSNQTTNPKLAPSFPSPPAVSIASFVTVKRPGVTGENSNEVAKLVNTLNTIPSLGQSPGPVVVSNNSSAHGSQRTSGPESSMKVTSSIPVFDLQDGGRKICPRCNAQFRVTEALRGHMCYCCPEMVEYQKKGKSLDSEPSVPSAAKPPSPEKTAPVASTPSSTPIPALSPPTKVPEPNENVGDAVQTKLIMLVDDFYYGRDGGKVAQLTNFPKVATSFRCPHCTKRLKNNIRFMNHMKHHVELDQQNGEVDGHTICQHCYRQFSTPFQLQCHLENVHSPYESTTKCKICEWAFESEPLFLQHMKDTHKPGEMPYVCQVCQYRSSLYSEVDVHFRMIHEDTRHLLCPYCLKVFKNGNAFQQHYMRHQKRNVYHCNKCRLQFLFAKDKIEHKLQHHKTFRKPKQLEGLKPGTKVTIRASRGQPRTVPVSSNDTPPSALQEAAPLTSSMDPLPVFLYPPVQRSIQKRAVRKMSVMGRQTCLECSFEIPDFPNHFPTYVHCSLCRYSTCCSRAYANHMINNHVPRKSPKYLALFKNSVSGIKLACTSCTFVTSVGDAMAKHLVFNPSHRSSSILPRGLTWIAHSRHGQTRDRVHDRNVKNMYPPPSFPTNKAATVKSAGATPAEPEELLTPLAPALPSPASTATPPPTPTHPQALALPPLATEGAECLNVDDQDEGSPVTQEPELASGGGGSGGVGKKEQLSVKKLRVVLFALCCNTEQAAEHFRNPQRRIRRWLRRFQASQGENLEGKYLSFEAEEKLAEWVLTQREQQLPVNEETLFQKATKIGRSLEGGFKISYEWAVRFMLRHHLTPHARRAVAHTLPKDVAENAGLFIDFVQRQIHNQDLPLSMIVAIDEISLFLDTEVLSSDDRKENALQTVGTGEPWCDVVLAILADGTVLPTLVFYRGQMDQPANMPDSILLEAKESGYSDDEIMELWSTRVWQKHTACQRSKGMLVMDCHRTHLSEEVLAMLSASSTLPAVVPAGCSSKIQPLDVCIKRTVKNFLHKKWKEQAREMADTACDSDVLLQLVLVWLGEVLGVIGDCPELVQRSFLVASVLPGPDGNINSPTRNADMQEELIASLEEQLKLSGEHSESSTPRPRSSPEETIEPESLHQLFEGESETESFYGFEEADLDLMEI
# Molecular target: lens epithelium-derived growth factor p75 (LEDGF/p75) (human (endogenous in PC3-DR and DU145-DR)) (UniProt O75475)
# Assay: co-IP; endogenous proteins from whole cell lysates (500 ug, non-denaturing lysis buffer) of PC3-DR and DU145-DR cells; LEDGF/p75 precipitated with human anti-LEDGF/p75 (DFS) autoantibody sera (1:100) and Protein A/G Sepharose, 12 h at 4 °C; partners detected by immunoblot; normal human serum as negative control
row,Binder,binding
1,B1,binds
2,B2,binds
3,B3,binds
